Laboratory results taken from PubChem BioAssay AID1259415 (National Center for Advancing Translational Sciences (NCATS), 2018).
Hit rate of the full screen: of about 410,000 compounds, about 18,000 (4.4%) were called active. The inconclusive results got no clear call from the source; some entries with a clear call stand among them for comparison. Cut-off read from the data, not from the text of the source: active = activity change below about -60%; inconclusive = no clear call, values can overlap the other calls; inactive = above about -39%.

Test: qHTS Assay for inhibitors of the human cytomegalovirus (HCMV)
Conditions: HFF cells, HCMV-luciferase reporter, 72 h; at 57.5 µM; active compounds read low
How it was run: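 Screen run at 2 compound doses on HFFs infected with reporter HCMV, MOI 1 PFU/cell. Luciferase activity from cell lysates at 72 h post infection gave inhibition relative to buffer-only and Salinomycin wells.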
% is set by controls: 0 for no effect and ±100 for the full control effect.

Compound	activity change, negative = inhibition
O=C(Nc1ccccc1)/C(=C\c1ccc2c(c1)OCO2)NC(=O)c1ccco1	inconclusive: -54.8%
CS(=O)(=O)N1CCN=C1SCc1ccc(Br)cc1	inconclusive: -54.6%
O=C(O)CCCC(=O)Nc1cccc2cccnc12	inactive: 53.3%
COc1ccc(C(=O)NCCc2c[nH]c3ccccc23)cc1[N+](=O)[O-]	inactive: 43.7%
CCOC(=O)CCC(=O)N1CCNC(=O)C1	inconclusive: -47%
O=C(CS(=O)(=O)c1ccccc1)Nc1ncc([N+](=O)[O-])s1	inactive: -7.62%
OCC[C@@H]1C[C@H](O)[C@@H](O)[C@]2(CCc3ccccc3CO2)O1	inconclusive: -51.8%
Cc1cc(NC(=O)CSc2nnc(-c3c[nH]c4ccccc34)n2-c2ccc(F)cc2)no1	inconclusive: -41.6%
Oc1ccc2ccccc2c1N=Nc1nccs1	inconclusive: -59.6%
Cc1ccc2ncnc(Nc3cccc([N+](=O)[O-])c3)c2c1	inconclusive: -40.9%
N#CC(c1ccccc1)N(CCCCl)C(=O)c1ccc(Br)cc1 (configuration not stated)	inconclusive: -59.5%
CCc1ccccc1Nc1nn2c(=O)c3ccc(C(=O)NCc4cccs4)cc3nc2s1	inconclusive: -40.6%
Cc1nc(N)nc(N/N=C/c2c(F)cccc2Cl)n1	inactive: -36%
Cn1c(=O)oc2cc(S(=O)(=O)N3CCC(C(=O)N4CCc5ccccc5C4)CC3)ccc21	inconclusive: -51.9%
COc1ccc2c(c1)c(CC(=O)Nc1nnc(C3CC3)s1)c(C)n2C(=O)c1ccc(Cl)cc1	active: -75.8%
CCOC(=O)c1cccc(NC(=O)c2ccc(F)cc2F)c1	inactive: 17.1%
Nc1ccc(-c2nc3ccccc3s2)cn1	inactive: 100%
CC(NC(=O)CCSc1nc(-c2ccco2)cc(C(F)(F)F)n1)c1ccccc1 (configuration not stated)	inconclusive: -52.2%
CCOC(=O)c1c(/N=C/N(C)C)sc(/C=N/Nc2ccccc2)c1-c1ccc(Cl)cc1	inconclusive: -49.3%

Rewritten with bars between the fields: part of the list above.
Compound | activity change, negative = inhibition
CS(=O)(=O)N1CCN=C1SCc1ccc(Br)cc1 | inconclusive: -54.6%
O=C(O)CCCC(=O)Nc1cccc2cccnc12 | inactive: 53.3%
COc1ccc(C(=O)NCCc2c[nH]c3ccccc23)cc1[N+](=O)[O-] | inactive: 43.7%

Next part.

Compound	activity change, negative = inhibition
S=C(NN=C(C1CC1)C1CC1)Nc1ccccc1	inconclusive: -44.7%
CCOc1ncccc1C(=O)N1CCCSC1=Nc1ccc(C(C)=O)cc1	inactive: 43.7%
Cc1noc(C)c1C(=O)OCC(=O)Nc1cccc(F)c1	inconclusive: -43.4%
CC1CCN(CCc2nc3cc(NC(=O)COc4ccc(Cl)cc4)ccc3n2C)CC1	inconclusive: 0%
COc1ccc(C(=O)NNC(=O)c2cc3cccc(OC)c3oc2=O)cc1	inconclusive: -40.6%
CCCC(=O)NC(=S)c1c(C)n(C)n(-c2ccccc2)c1=O	inactive: 35.1%
CCCCN(C(=O)CSCC(=O)Nc1cccc(C)c1)c1c(N)n(CCCC)c(=O)[nH]c1=O	inactive: -13.7%
O=C(NCc1ccccn1)Nc1ccc(Cl)cc1Cl	inactive: 63.2%
COc1ccc(C)cc1-n1nnnc1SC(C)C(=O)NC1CCCC1 (configuration not stated)	inconclusive: -47.7%
Cc1cc(Nc2cccc(Cl)c2)nc(-c2ccccc2O)n1	inactive: 3.82%
COc1ccc(NC(=O)c2ccc(Br)o2)c([N+](=O)[O-])c1	inconclusive: -49.9%
Cc1ccc(SCCOCCN2CC(C)OC(C)C2)cc1 (configuration not stated)	inconclusive: -43.1%
CCN(CC)CCN1C(=O)C(=O)/C(=C(/O)c2ccc(S(=O)(=O)N3CCOCC3)cc2)C1c1ccccc1 (configuration not stated)	inconclusive: -43.2%
Cc1ccnc(NS(=O)(=O)c2ccc(NC(=O)c3ccc(N4C(=O)CCC4=O)cc3)cc2)n1	inconclusive: -50.8%
Cc1cccc(OCC(=O)Nc2ccc3c4c(cccc24)CC3)c1C	inconclusive: -53.3%
CC(Oc1ccc(Cl)cc1)C(=O)N(C)CC(=O)Nc1ccc(N2CCOCC2)cc1 (configuration not stated)	inconclusive: -52.5%
CCOC(=O)c1cc(-c2ccncc2)nc2c1c(C)nn2C	inactive: -3.2%
CCCC(=O)NC(Nc1ccccc1OC)C(Cl)(Cl)Cl (configuration not stated)	inconclusive: -45.8%
C/C(=N\Nc1nc(C)cc(C)n1)c1ccc(C)o1	inconclusive: -49.2%

Compound	activity change, negative = inhibition
CCN(CC)C(=O)CSc1nnc2cc(C)c3ccccc3n12	inconclusive: -57.5%
CC(C)CC(NC(=O)c1cccs1)c1nnc(SCc2ccc(Cl)c(Cl)c2)n1C (configuration not stated)	inconclusive: -59.1%
COCCn1c(SCC(=O)Nc2ccc(OC)cc2)nnc1-c1ccoc1C	inconclusive: -48.9%
CCc1ccc(S(=O)(=O)NCC2(N3CCOCC3)CCCCC2)cc1	inconclusive: -44.3%
O=C(NCC1CCCN1S(=O)(=O)c1cccs1)c1cccc(Cl)c1 (configuration not stated)	inconclusive: -50%
O=C(Nc1ccc(Cc2ccncc2)cc1)C1CCC(N2C(=O)C3C4C=CC(C4)C3C2=O)CC1 (configuration not stated)	active: -80.3%
CCOC(=O)c1ccc(N2Cc3ccccc3C2)cc1O	inactive: 57.9%
OC[C@@H](O)[C@@H](O)[C@H](O)[C@H](O)CO	inconclusive: -51.3%
COc1ccc(/C=N/NC(=O)c2ccoc2C)cc1CN1CCN(c2ccc(F)cc2)CC1	inactive: 5.92%
CCOC(=O)C(C)n1cnc2c(nnn2-c2ccc(C)cc2)c1=O (configuration not stated)	inconclusive: -45.6%
O=C(NCc1ccc(F)cc1)c1ccc(CS(=O)(=O)c2ccc(Cl)cc2)o1	inactive: 0%
C[C@H]1C=C(C(=O)NCc2ccccc2)O[C@@H](OCc2ccc(CO)cc2)C1	inactive: -22.4%
CC(C)N(c1ccccc1)c1ccc(NC(=O)CCl)cc1	active: -60.8%
Cc1nn2c([nH]c(=O)c3ccccc32)c1C=O	inconclusive: -47.2%
COc1ccccc1-n1cc(-c2ccc(C)cc2)[nH]c1=S	inconclusive: -59.8%
COc1ccc(C(=O)CC(=O)Nc2ccc([N+](=O)[O-])cc2)cc1	inconclusive: -54.1%
Cc1cccc(-n2c(C)cc(C=C3C(=O)c4ccccc4C3=O)c2C)c1	inconclusive: -41.2%
CS(=O)(=O)NCC(c1ccco1)N1CCN(c2ccccc2)CC1 (configuration not stated)	inactive: 95.6%
O=C(Nc1cc(S(=O)(=O)N2CCCCC2)ccc1N1CCOCC1)c1ccc(C(F)(F)F)cc1	inactive: -25.5%
